In experiment [1] the target is Rho-associated coiled-coil kinase 1 (ROCK1), endogenous (human (endogenous in HEK293T)) (UniProt Q13464). The experiment is described as follows: co-IP; HEK293(T) cells transfected with ROCK1 CA plasmid or pcDNA, lysed 48 h later in 1% RIPA lysis buffer; precipitation with anti-ROCK1 and anti-myc antibody (legend: ROCK1 crosslinked agarose), protein A + G agarose beads 4 h at 4°C, four washes with lysis buffer; western blot for anti-Myc and anti-Beclin1.

Protein sequences, listed by entry. Tags and fused reporters are not part of them. Lines headed by an entry give the natural chain unless they say otherwise; changes in a name come on top. Residues count along the entry.
UniProt Q13464: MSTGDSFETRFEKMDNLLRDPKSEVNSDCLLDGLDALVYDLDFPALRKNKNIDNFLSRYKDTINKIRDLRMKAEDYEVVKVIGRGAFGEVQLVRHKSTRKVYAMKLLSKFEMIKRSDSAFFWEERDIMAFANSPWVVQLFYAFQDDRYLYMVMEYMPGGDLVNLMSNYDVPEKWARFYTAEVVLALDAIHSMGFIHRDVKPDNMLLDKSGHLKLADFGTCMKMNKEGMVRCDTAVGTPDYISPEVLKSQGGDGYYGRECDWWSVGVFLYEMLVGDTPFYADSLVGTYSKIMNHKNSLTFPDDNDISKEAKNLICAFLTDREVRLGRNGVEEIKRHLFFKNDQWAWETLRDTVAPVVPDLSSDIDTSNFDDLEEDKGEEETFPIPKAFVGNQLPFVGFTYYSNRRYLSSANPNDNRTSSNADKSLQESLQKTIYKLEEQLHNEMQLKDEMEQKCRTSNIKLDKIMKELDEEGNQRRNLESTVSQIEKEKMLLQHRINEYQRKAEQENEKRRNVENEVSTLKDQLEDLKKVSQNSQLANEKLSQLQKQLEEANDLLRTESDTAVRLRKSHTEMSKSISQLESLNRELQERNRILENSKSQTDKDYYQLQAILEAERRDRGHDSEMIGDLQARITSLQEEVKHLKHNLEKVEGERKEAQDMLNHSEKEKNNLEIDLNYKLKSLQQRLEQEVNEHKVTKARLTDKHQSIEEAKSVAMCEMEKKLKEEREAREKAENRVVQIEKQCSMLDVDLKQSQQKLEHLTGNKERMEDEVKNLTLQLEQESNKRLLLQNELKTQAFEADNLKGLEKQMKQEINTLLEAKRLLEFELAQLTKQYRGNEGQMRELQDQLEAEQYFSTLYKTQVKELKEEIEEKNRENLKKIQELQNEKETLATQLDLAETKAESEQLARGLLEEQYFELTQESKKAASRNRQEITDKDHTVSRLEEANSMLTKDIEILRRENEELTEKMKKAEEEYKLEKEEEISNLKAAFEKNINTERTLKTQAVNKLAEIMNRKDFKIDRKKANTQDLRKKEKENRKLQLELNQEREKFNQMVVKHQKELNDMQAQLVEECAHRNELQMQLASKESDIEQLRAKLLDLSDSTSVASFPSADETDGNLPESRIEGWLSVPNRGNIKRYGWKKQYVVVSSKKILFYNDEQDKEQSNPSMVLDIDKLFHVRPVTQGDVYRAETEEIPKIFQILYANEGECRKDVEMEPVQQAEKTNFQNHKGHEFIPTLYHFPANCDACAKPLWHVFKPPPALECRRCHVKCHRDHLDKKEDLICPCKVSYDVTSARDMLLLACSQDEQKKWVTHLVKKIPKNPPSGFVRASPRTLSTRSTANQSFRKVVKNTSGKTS
constitutively active ROCK1 fragment (pCAG-myc-ROCK1^myc-727 Δ3, ROCK1 CA): residues 1-727 of Q13464
UniProt Q14457: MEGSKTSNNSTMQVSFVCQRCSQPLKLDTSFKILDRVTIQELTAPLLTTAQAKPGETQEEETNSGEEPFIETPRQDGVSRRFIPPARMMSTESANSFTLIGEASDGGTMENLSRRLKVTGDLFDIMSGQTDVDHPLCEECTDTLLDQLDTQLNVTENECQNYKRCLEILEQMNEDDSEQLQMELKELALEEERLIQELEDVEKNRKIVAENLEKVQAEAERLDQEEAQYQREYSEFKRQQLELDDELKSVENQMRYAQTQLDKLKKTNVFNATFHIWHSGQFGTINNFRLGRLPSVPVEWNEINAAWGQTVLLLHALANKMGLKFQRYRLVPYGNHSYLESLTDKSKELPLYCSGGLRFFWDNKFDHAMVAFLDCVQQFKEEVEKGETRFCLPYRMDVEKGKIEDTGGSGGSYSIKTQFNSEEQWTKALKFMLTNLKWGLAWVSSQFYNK

Experiment [2] concerns the target constitutively active ROCK1 fragment (pCAG-myc-ROCK1^myc-727 Δ3, ROCK1 CA) (human) (UniProt Q13464). Described as above.

No constants are given. Whether binding was seen depends on the method and setting. Binding seen in cells or lysates may run through a third protein. Some entries that bind do so weakly or less than the wild type.

Take “Beclin1, endogenous (from UniProt Q14457 1-450)”: the binding result in experiment [1] and in experiment [2] was “binds” each time.

These data come from paper PMC5089992.
